Patent US20240343666A1, “PERINAPHTHENONE COMPOUND AND USE THEREOF” (INSTITUTE OF MEDICINAL BIOTECHNOLOGY, CHINESE ACADEMY OF …, priority 2021, published 2024)
Some of these results come from one statement about several compounds together.

Test: Solubility of the isolated compounds
Format: physicochemical
Details: for Solubility in organic solvents: methanol, ethanol, DMSO

Row | SMILES | Solubility in organic solvents | Solubility in water
1 | C/C(=C\C[C@]1(O)C(=O)c2c(O)cc(C)c3c(O)c(C)c(O)c(c23)C1=O)CC/C=C(\C)CCC(O)[C@@]1(C)CC[C@H](C(C)(C)O)O1 (relative stereo) [Compound C10] | easily soluble | insoluble in water
2 | C/C(=C\CC/C(C)=C/C[C@]1(O)C(=O)c2c(O)cc(C)c3c(O)c(C)c(O)c(c23)C1=O)CC/C=C(\CO)CC[C@@H](O)C(C)(C)O [Compound C1] | easily soluble | insoluble in water
3 | CC(C)=CCC/C(=C/CC/C(C)=C/CC/C(C)=C/C[C@]1(O)C(=O)c2c(O)cc(C)c3c(O)c(C)c(O)c(c23)C1=O)CO [Compound C2] | easily soluble | insoluble in water
4 | CC(C)=CCC/C(C=O)=C\CC/C(C)=C/CC/C(C)=C/C[C@]1(O)C(=O)c2c(O)cc(C)c3c(O)c(C)c(O)c(c23)C1=O [Compound C3] | easily soluble | insoluble in water
5 | CC(C)=CC1C/C(=C/CC/C(C)=C/CC/C(C)=C/C[C@]2(O)C(=O)c3c(O)cc(C)c4c(O)c(C)c(O)c(c34)C2=O)CO1 (stereo partly shown) [Compound C4] | easily soluble | insoluble in water
6 | CC(=O)OC(C=C(C)C)C/C(C)=C/CC/C(C)=C/CC/C(C)=C/C[C@]1(O)C(=O)c2c(O)cc(C)c3c(O)c(C)c(O)c(c23)C1=O (stereo partly shown) [Compound C5] | easily soluble | insoluble in water
7 | C/C(=C\CC/C(C)=C/C[C@]1(O)C(=O)c2c(O)cc(C)c3c(O)c(C)c(O)c(c23)C1=O)CC/C=C(\C)CC[C@@H](O)C(C)(C)O [Compound C6] | easily soluble | insoluble in water
8 | C/C(=C\CC/C(C)=C/C[C@]1(O)C(=O)c2c(O)cc(C)c3c(O)c(C)c(O)c(c23)C1=O)CC/C=C(\CO)CCC1OC(C)(C)OC1(C)C (stereo partly shown) [Compound C7] | easily soluble | insoluble in water
9 | C/C(=C\CC/C(C)=C/C[C@]1(O)C(=O)c2c(O)cc(C)c3c(O)c(C)c(O)c(c23)C1=O)CC/C=C(\CCC1OC(C)(C)OC1(C)C)C(=O)O (stereo partly shown) [Compound C8] | easily soluble | insoluble in water
10 | C/C(=C\C[C@]1(O)C(=O)c2c(O)cc(C)c3c(O)c(C)c(O)c(c23)C1=O)CC/C=C(\C)CCC(O)[C@@]1(C)CC[C@@H](C(C)(C)O)O1 (stereo partly shown) [Compound C9] | easily soluble | insoluble in water
11 | C/C(=C\CC/C(C)=C/C[C@]1(O)C(=O)c2c(O)cc(C)c3c(O)cc(O)c(c23)C1=O)CC/C=C(\CO)CC[C@@H](O)C(C)(C)O [Compound C11] | easily soluble | insoluble in water
12 | CC(C)=CCC/C(=C/CC/C(C)=C/CC/C(C)=C/C[C@]1(O)C(=O)c2c(O)cc(C)c3c(O)c(C)c(O)c(c23)C1=O)C(=O)O [Compound C12] | easily soluble | insoluble in water
13 | C/C(=C\CC/C(C)=C/C[C@]1(O)C(=O)c2c(O)cc(C)c3c(O)c(C)c(O)c(c23)C1=O)CC/C=C1/CCC(C(C)(C)O)OC1 (stereo partly shown) [Compound C13] | easily soluble | insoluble in water
14 | C/C(=C\CC/C(C)=C/C[C@]1(O)C(=O)c2c(O)cc(C)c3c(O)c(C)c(O)c(c23)C1=O)C/C=C/C1(C)CCC(C(C)(C)O)O1 (stereo partly shown) [Compound C14] | easily soluble | insoluble in water
